# Measurements published in the supplement of paper PMC3334620.
# The full ranking holds about 33,000 sequences; the median of “E-score (-0.5 to 0.5)” is about -0.015, and the highest 2% start at about 0.3. The list shows a part of the results.
# Target: T1, Abf1 (UniProt P14164)
# T1 sequence: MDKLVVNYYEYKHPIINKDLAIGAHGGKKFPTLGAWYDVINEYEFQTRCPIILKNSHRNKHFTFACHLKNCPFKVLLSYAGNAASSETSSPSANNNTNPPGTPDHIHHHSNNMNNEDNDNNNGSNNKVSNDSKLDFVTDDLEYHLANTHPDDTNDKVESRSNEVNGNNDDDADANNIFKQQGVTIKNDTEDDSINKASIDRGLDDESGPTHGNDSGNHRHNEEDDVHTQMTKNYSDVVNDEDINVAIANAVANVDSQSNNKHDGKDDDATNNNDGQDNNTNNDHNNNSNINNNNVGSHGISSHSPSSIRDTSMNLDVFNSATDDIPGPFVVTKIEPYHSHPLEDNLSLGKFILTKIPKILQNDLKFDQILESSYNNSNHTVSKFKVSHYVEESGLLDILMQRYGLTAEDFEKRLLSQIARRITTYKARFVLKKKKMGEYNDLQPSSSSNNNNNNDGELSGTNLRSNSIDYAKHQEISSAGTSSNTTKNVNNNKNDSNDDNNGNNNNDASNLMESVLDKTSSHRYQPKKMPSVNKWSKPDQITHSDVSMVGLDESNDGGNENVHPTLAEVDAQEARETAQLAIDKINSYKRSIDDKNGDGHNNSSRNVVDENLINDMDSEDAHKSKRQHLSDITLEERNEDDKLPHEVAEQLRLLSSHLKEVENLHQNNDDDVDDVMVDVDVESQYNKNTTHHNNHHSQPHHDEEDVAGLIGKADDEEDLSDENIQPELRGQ
# Test: PBM E-score (8-mer binding enrichment) (E-score (-0.5 to 0.5)); higher = stronger / more preferred TF binding
# Conditions: protein concentration: 200 nM; construct: GST-full length
# Description: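 Universal 'all 10-mer' protein binding microarrays (Agilent AMADID 015681) probed with GST-tagged S. cerevisiae TFs (full-length or DBD) made by in vitro transcription/translation (PURExpress), about 100-200 nM. Bound TF was detected with fluorescent anti-GST. Each ungapped 8-mer (which stands for itself and its reverse complement) is scored by the PBM enrichment score (E-score), a modified Wilcoxon-Mann-Whitney statistic from -0.5 to +0.5, computed with the Universal PBM Analysis Suite. Scale: above 0.35 generally sequence-specific binding.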
row,Sequence,PBM E-score
1,AAACCAAC,-0.0828
2,GGGCGGTA,-0.326
3,AGGCGGAA,-0.0884
4,TCGCACAA,0.167
5,AGGCAACA,-0.256
6,ATACATTG,0.221
7,ATGTAGGC,-0.0335
8,GGGTATAC,-0.105
9,CACCTTCG,0.0402
10,CGAATTAG,0.131
11,GCGGACTA,-0.11
12,CTACTTCA,-0.0316
13,CGCACCAC,-0.0525
14,ATAAGTGG,0.126
15,AACGTGCG,0.153
16,TCGCTGAA,0.164
17,GACCCAGC,-0.176
18,CTTATTGA,0.0818
19,CTATCCGC,0.168
20,ACCACTTA,-0.0219
21,GCAGGAGA,-0.0105
22,CAGGTCGG,-0.127

row,Sequence,PBM E-score
1,AGCGGGCG,-0.141
2,CAGCCATC,-0.223
3,ATACTACG,0.153
4,AGATTCTA,0.028
5,GCGTCTAC,-0.0112
6,ACCCGTAT,0.045
7,GCAAGGAA,-0.189
8,AGGCTTAG,-0.185
9,AATTAAAC,0.229
10,CAAAGTAC,0.127
11,CACGAATA,0.255
12,AAGCTTAT,0.00656
13,ACTACCAT,0.0819
14,ACTAGGGA,-0.0927
15,TAGTAATA,0.0958
16,AGATGGGC,-0.0743
17,CTCGGTAA,-0.0512
18,AGATATCT,0.158
19,AAGAGACT,-0.215
20,CCATTCGG,-0.0195
21,AACAACAC,0.0101
22,AACATTAC,0.00558

row,Sequence,PBM E-score
1,ACCGATAT,0.0499
2,CGAAACCA,0.123
3,CATCAATA,0.177
4,ACGCCGAA,-0.0316
5,ACAAACGC,-0.0742
6,CGAACCCG,-0.0227
7,CAATAGGA,-0.00611
8,GATCCGGC,-0.00692
9,AAACTATT,0.0169
10,CAGCCGAA,-0.104
11,CACGGGAG,0.034
12,ACGGGCCT,-0.131
13,CGCCGGTA,-0.187
14,AATATCGA,0.0788
15,GTTAAGTA,-0.0223
16,CTCATATA,-0.00684
17,CGCATCCC,-0.23
18,AGCGCAGA,-0.0505
19,CGTACGTA,0.266
20,CGCGAAAC,-0.108
21,AAAACTAA,0.185
22,ATGGTGAA,0.0369

# Reformatted with bars between the fields: part of the list above
row | Sequence | PBM E-score
18 | AGCGCAGA | -0.0505
19 | CGTACGTA | 0.266
20 | CGCGAAAC | -0.108

# Continuation:

row,Sequence,PBM E-score
1,GCATTCCA,-0.136
2,ATGAATCC,0.0636
3,CTGATGCA,0.0185
4,CGTCCTGC,0.0578
5,CGATGACC,0.206
6,ACAGCGAT,0.0184
7,TATACGCA,0.153
8,CCACTCGG,-0.147
9,AGTCGCGC,-0.0008
10,CCGATGAC,0.247
11,ATCTTTAG,0.0145
12,CATGTTGC,-0.145
13,CCAGTGCG,-0.0421
14,ATTCCGCC,-0.0862
15,CAAACAGA,0.0366
16,ACCAATTC,0.0749
17,CGGCTCCA,-0.171
18,ATCTAGGA,0.246
19,ACAAGCGT,-0.251
20,AATAAGGT,-0.0898
21,ATGATAAG,0.291
22,ACTCTATC,-0.0127

row,Sequence,PBM E-score
1,GGTGCTTA,-0.078
2,ATACGTTC,0.0901
3,CAAATCGA,0.0162
4,GATACGAA,0.309
5,ACAGTACG,0.173
6,GACGCCGC,-0.0529
7,ACCCGGCA,0.0507
8,CAACAAAG,-0.0536
9,CCGCAATA,0.0386
10,ATCGGGCG,-0.248
11,CGATGAGC,-0.142
12,AATAGTAC,0.132
13,ATGCGCAT,0.293
14,AAGGTGGC,-0.0615
15,CTATGAAG,-0.0657
16,GCGTGAAC,-0.0162
17,CGTACGAG,0.343
18,CGTTTGAA,0.297
19,CTACGCTC,-0.0362
20,ATCTCCTC,-0.0278
21,AGTAGGGA,-0.0301
